{"source": "PubChem BioAssay AID1259405 (NCATS, 2018)", "assay": "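Knock-downs that lift recombinant protein yield in hamster ovary cells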 (primary screen)", "cell system": "Chinese hamster CHO-K1 ovary cells with stable secreted eGFP expression", "knock-down reagent": "single siRNA against mouse genes, 0.8 pmol siRNA per well (2 µl of 400 nM stock)", "timing": "3 days", "measurement": "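Per-well intracellular GFP measured by laser scanning cytometry, plus viability from ATP luminescence, each relative to plate median of non-targeting control wells, in %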", "reading the numbers": "GFP, % of control: higher = more GFP per well, higher productivity; viability (ATP), % of control: higher = more viable cells (more ATP)", "call rule": "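a knock-down is called active if GFP reaches 120% or more of non-targeting control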", "note": "Shown is a random part of about 50,000 reagents tested. Of all reagents, about 4,000 (8%) were called active. 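Mouse siRNA library applied to hamster cells; one well for each siRNA.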"}
{"gene": "Rp1l1", "PubChem SID": "SID363555130", "GFP, % of control": 47.3, "viability (ATP), % of control": 81.9, "outcome": "inactive"}
{"gene": "Rp1l1", "PubChem SID": "SID363568577", "GFP, % of control": 47.1, "viability (ATP), % of control": 58, "outcome": "inactive"}
{"gene": "Rp1l1", "PubChem SID": "SID363586636", "GFP, % of control": 76.3, "viability (ATP), % of control": 67.1, "outcome": "inactive"}
{"gene": "Defb2", "PubChem SID": "SID363553625", "GFP, % of control": 65.6, "viability (ATP), % of control": 74.5, "outcome": "inactive"}
{"gene": "Defb2", "PubChem SID": "SID363561582", "GFP, % of control": 86.4, "viability (ATP), % of control": 50.9, "outcome": "inactive"}
{"gene": "Defb2", "PubChem SID": "SID363565320", "GFP, % of control": 83.5, "viability (ATP), % of control": 68.6, "outcome": "inactive"}
{"gene": "Stk24", "PubChem SID": "SID363547387", "GFP, % of control": 216, "viability (ATP), % of control": 141, "outcome": "active"}
{"gene": "Stk24", "PubChem SID": "SID363558156", "GFP, % of control": 67.8, "viability (ATP), % of control": 94.1, "outcome": "inactive"}
{"gene": "Stk24", "PubChem SID": "SID363559914", "GFP, % of control": 109, "viability (ATP), % of control": 110, "outcome": "inactive"}
{"gene": "Chmp3", "PubChem SID": "SID363554071", "GFP, % of control": 40.3, "viability (ATP), % of control": 57, "outcome": "inactive"}
{"gene": "Chmp3", "PubChem SID": "SID363562028", "GFP, % of control": 116, "viability (ATP), % of control": 65, "outcome": "inactive"}
{"gene": "Chmp3", "PubChem SID": "SID363565766", "GFP, % of control": 52.5, "viability (ATP), % of control": 53.5, "outcome": "inactive"}
{"gene": "Or52z1", "PubChem SID": "SID363554193", "GFP, % of control": 82.6, "viability (ATP), % of control": 91, "outcome": "inactive"}
{"gene": "Or52z1", "PubChem SID": "SID363567640", "GFP, % of control": 37.2, "viability (ATP), % of control": 67.2, "outcome": "inactive"}
{"gene": "Or52z1", "PubChem SID": "SID363584997", "GFP, % of control": 56.7, "viability (ATP), % of control": 119, "outcome": "inactive"}

4 of these entries in another layout:
gene | PubChem SID | GFP, % of control | viability (ATP), % of control | outcome
Rp1l1 | SID363555130 | 47.3 | 81.9 | inactive
Rp1l1 | SID363568577 | 47.1 | 58 | inactive
Rp1l1 | SID363586636 | 76.3 | 67.1 | inactive
Defb2 | SID363553625 | 65.6 | 74.5 | inactive

The list goes on:
{"gene": "Armc10", "PubChem SID": "SID363543750", "GFP, % of control": 73.9, "viability (ATP), % of control": 33.8, "outcome": "inactive"}
{"gene": "Armc10", "PubChem SID": "SID363551486", "GFP, % of control": 83.1, "viability (ATP), % of control": 83.5, "outcome": "inactive"}
{"gene": "Armc10", "PubChem SID": "SID363559091", "GFP, % of control": 78.2, "viability (ATP), % of control": 77.6, "outcome": "inactive"}
{"gene": "Hoxb3", "PubChem SID": "SID363540415", "GFP, % of control": 56.3, "viability (ATP), % of control": 77.2, "outcome": "inactive"}
{"gene": "Hoxb3", "PubChem SID": "SID363542167", "GFP, % of control": 30.4, "viability (ATP), % of control": 34.6, "outcome": "inactive"}
{"gene": "Hoxb3", "PubChem SID": "SID363567083", "GFP, % of control": 70.8, "viability (ATP), % of control": 92.9, "outcome": "inactive"}
{"gene": "Fbxo48", "PubChem SID": "SID363541759", "GFP, % of control": 70.8, "viability (ATP), % of control": 70.2, "outcome": "inactive"}
{"gene": "Fbxo48", "PubChem SID": "SID363553351", "GFP, % of control": 53.6, "viability (ATP), % of control": 81.3, "outcome": "inactive"}
{"gene": "Fbxo48", "PubChem SID": "SID363566675", "GFP, % of control": 8.6, "viability (ATP), % of control": 19.9, "outcome": "inactive"}
{"gene": "Spo11", "PubChem SID": "SID363569060", "GFP, % of control": 109, "viability (ATP), % of control": 82.5, "outcome": "inactive"}
{"gene": "Spo11", "PubChem SID": "SID363583492", "GFP, % of control": 108, "viability (ATP), % of control": 89.7, "outcome": "inactive"}
{"gene": "Klhdc1", "PubChem SID": "SID363540234", "GFP, % of control": 43.2, "viability (ATP), % of control": 53.4, "outcome": "inactive"}
{"gene": "Klhdc1", "PubChem SID": "SID363541986", "GFP, % of control": 55.9, "viability (ATP), % of control": 62.2, "outcome": "inactive"}
{"gene": "Klhdc1", "PubChem SID": "SID363566902", "GFP, % of control": 90.9, "viability (ATP), % of control": 65.7, "outcome": "inactive"}
